Data published in publication doi:10.1101/674218 (bioRxiv, 2019).
No constants are given. Whether binding was seen depends on the method and setting. In cells and extracts the contact can be indirect. Some binding calls cover weakened binding; strength is not graded here. Where a sequence is shown, tags or fusion partners need not be part of it.

Biological target: T1, triggering receptor expressed on myeloid cells-1 (TREM-1) on RAW264.7 macrophages (mouse (endogenous in RAW264.7)) (UniProt Q9JKE2)
T1 sequence: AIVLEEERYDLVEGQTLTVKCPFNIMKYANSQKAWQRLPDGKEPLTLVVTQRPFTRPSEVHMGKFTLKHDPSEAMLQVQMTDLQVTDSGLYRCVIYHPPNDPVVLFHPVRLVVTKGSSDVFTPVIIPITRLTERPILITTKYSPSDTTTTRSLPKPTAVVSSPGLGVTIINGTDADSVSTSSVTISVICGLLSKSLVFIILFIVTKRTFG
Assay: FRET or BRET

B1: recombinant murine cold-inducible RNA-binding protein, His-tagged (rmCIRP-his) (natural protein, mouse, UniProt P60824 1-172, looked up)
chain: MASDEGKLFVGGLSFDTNEQALEQVFSKYGQISEVVVVKDRETQRSRGFGFVTFENIDDAKDAMMAMNGKSVDGRQIRVDQAGKSSDNRSRGYRGGSAGGRGFFRGGRSRGRGFSRGGGDRGYGGGRFESRSGGYGGSRDYYASRSQGGSYGYRSSGGSYRDSYDSYATHNE
- binding: binds
